Assay results published in publication PMC8197395.
These are yes or no findings as the source states them, for the method shown. In cells and extracts the contact can be indirect. Some binding calls cover weakened binding; strength is not graded here. Sequences can lack the tags named with a protein.

The chains behind the UniProt entries cited, without tags or fusion partners. Residues count along the entry.
UniProt Q92841: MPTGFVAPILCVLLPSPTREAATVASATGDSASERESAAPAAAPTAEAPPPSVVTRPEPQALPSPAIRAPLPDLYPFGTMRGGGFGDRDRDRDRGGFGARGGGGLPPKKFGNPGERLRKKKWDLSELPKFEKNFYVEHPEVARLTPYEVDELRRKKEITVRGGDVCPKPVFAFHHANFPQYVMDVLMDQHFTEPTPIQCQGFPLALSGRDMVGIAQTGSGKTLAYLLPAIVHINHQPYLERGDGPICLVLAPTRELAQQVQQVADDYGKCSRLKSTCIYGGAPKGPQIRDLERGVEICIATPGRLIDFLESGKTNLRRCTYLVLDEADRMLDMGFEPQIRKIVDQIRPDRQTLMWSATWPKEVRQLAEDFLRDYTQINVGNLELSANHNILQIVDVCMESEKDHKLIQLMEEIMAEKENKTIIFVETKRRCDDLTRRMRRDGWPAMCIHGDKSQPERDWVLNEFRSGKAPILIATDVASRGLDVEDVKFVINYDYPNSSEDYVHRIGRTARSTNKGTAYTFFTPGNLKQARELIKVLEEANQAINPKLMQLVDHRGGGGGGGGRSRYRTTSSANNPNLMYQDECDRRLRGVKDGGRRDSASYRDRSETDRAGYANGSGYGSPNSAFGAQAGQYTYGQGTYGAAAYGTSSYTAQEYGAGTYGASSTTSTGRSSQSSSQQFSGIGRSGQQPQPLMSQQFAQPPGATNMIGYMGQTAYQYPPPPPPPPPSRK
UniProt P29372, residues 18-298: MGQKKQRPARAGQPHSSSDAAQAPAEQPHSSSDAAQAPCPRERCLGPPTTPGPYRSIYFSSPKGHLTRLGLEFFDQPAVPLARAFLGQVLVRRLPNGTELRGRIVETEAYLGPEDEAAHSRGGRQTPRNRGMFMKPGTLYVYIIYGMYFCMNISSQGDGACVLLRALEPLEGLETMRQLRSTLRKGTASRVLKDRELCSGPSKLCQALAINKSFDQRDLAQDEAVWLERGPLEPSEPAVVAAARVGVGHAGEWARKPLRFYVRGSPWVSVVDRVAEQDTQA

The substances below were run against T1, Zeb1/GFP fusion protein (UniProt P37275) (assay: co-IP; nuclear extracts of MCF-7/Zeb1 cells at 0, 24 and 72 h after doxycycline; precipitated with llama nanoantibodies to GFP on sepharose; immunoblot with antibodies to the partners).
T1 sequence: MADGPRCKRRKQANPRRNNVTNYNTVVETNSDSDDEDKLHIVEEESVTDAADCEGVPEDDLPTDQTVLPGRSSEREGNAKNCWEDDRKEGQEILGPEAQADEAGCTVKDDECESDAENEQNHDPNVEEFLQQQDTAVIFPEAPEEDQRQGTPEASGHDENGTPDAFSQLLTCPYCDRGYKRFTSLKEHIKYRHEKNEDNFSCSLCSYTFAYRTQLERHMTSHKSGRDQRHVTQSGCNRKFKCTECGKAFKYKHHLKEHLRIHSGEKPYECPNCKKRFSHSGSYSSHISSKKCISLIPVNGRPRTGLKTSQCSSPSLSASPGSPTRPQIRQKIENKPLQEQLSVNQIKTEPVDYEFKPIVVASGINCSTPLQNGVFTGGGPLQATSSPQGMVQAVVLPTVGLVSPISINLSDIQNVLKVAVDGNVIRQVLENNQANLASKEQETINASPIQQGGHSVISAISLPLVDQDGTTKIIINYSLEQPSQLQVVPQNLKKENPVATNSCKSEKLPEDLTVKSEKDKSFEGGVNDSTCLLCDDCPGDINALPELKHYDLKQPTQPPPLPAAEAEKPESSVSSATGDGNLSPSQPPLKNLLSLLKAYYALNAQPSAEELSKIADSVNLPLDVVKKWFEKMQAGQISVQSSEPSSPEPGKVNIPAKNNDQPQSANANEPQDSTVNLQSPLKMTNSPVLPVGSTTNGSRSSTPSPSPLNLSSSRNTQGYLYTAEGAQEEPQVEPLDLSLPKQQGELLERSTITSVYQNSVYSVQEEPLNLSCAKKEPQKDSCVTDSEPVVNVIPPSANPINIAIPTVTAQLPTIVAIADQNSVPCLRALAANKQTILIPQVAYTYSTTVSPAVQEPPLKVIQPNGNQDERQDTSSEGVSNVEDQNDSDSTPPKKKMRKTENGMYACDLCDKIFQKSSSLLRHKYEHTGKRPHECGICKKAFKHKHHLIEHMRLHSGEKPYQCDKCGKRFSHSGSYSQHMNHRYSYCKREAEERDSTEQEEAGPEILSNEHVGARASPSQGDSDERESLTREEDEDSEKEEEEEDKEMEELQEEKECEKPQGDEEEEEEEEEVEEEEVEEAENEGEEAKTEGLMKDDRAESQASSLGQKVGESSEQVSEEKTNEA

Which binding does the source give for “ATP-dependent RNA helicase DDX17 (from UniProt Q92841 1-729)” here?
The binding was “binds”.

Which binding does the source give for “C-terminal-binding protein 2 (from UniProt P56545 1-445)” here?
The binding was “binds”.

For MPG (from UniProt P29372 18-298), which binding is on record?
The binding was “binds”.
